In article PMC11444770, “Moesin contributes to heat shock gene response through direct binding to the Med15 subunit of the Mediator complex in the nucleus” (Open Biology, 2024):
These are yes or no findings as the source states them, for the method shown. In cells and extracts the contact can be indirect. These calls come from enrichment with a bait or labelling near it, and not all partners need be listed.

Amino acid sequences for entries named in this document (tags omitted).
UniProt P46150: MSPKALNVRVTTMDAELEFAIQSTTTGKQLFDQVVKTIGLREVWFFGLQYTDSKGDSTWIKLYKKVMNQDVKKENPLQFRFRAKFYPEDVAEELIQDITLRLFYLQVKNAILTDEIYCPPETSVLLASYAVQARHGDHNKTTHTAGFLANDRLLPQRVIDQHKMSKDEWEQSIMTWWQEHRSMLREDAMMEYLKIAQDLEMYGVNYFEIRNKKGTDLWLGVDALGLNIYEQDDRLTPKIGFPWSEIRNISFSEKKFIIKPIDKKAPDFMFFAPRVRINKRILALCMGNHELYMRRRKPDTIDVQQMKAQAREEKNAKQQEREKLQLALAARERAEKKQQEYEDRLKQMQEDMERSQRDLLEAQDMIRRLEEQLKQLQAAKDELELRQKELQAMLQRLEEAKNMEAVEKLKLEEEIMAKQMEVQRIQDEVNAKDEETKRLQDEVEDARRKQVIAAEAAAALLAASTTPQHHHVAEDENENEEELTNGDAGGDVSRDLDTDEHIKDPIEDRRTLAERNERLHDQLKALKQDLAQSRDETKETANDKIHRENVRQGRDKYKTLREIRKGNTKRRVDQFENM

B1: Med15 (endogenous, S2R+ nuclear fraction) (protein, UniProt Q9Y149 1-749)
chain: MTEDWQSQKFRQNVISKIHDLLPPNAQDQTKNAGVMENHIFRKSRTKDEYLGLVAKLFMHYKDMSRKSQQQQQQQQQQGGPPPNAEMGGGQNMMQDPLNALQNLASQGNRNPQMMPMGAGGGAPVPGGPGTASNLLQSLNQQRPGQQQMQPMSNIRGQMPMGAGGAGAQQMMQVQQMQQGGNAPGVMNVMGAGGGQNQGQIVGNPGQQMGVGVGMPNQMVGPGPNSGPAVGGAGGPNAAPGAGGPGPNQMQGGPMNVNAMQQMPPMQQIQQNQLGMGMNPMMRMGQGNGMGGPQGMPGQGMQGMPQGPHNVVGGPAGQQQVGGAGLPPNAVQQGGMNPMGGMGVNMPPNLQQKPNMPMGQAGQMFPGNRGGVGVGGQQPGQPFMRSSPSPADAQQLQQQAQLQQMQQQQQQLVVGNQTPTQQPPTPQMPTPNMIPSPALVPQSSPQMMQMQNSQRNIRQQSPSASINTPGQVTGNSPFNPQEEALYREKYKQLTKYIEPLKRMLAKISNDGTNVEKMTKMSKLLEILCNPTQRVPLETLLKCEKALEKMDLISYSGQQFGKSSNPLLEVINTTLQSPVANHTLYRTFRPTLELLFGTDITAPVPAKRPRVEEKSTSFEQEVPHVLQGEIARLDTKFKVKLDTTSQINNKAIRLICCLDDKRLPSVPPVSVSVPEEYPWQAPDCSLAEQEYSATPFLQTVQQALIARISKLPKNYSLSHLLDTWEMAVRQACSPQSKPRAVCELSTLLGV
B2: Med6 (endogenous, S2R+ nuclear fraction) (protein, UniProt Q8MSX2 1-249)
chain: MASRQMTNDHLRLSWHDTQMMATLSPQTVMDYFCRKSNPFYDHMCNNETVRMQRLGPEHLHNMIGLEYILLHVAEPILYVIRKQHRHNPSEATPIADYYIIGGTVYKAPDLANVINSRILNTVVNLQSAFEEASSYARYHPNKGYTWDFSSNKVFSDRSKSDKKDANSAKDENSGTLFQKQRVDMLLAELLRKFPPPIPPMLQNLQQPPPAGDDLNTARNASEMNNATGPLDIKTEGVDMKPPPEKKSK
B3: Med23 (endogenous, S2R+ nuclear fraction) (protein, UniProt Q9W1X7 1-1439)
chain: METQVIDTVNEFLKVDSLDEAFVSVIVFKPNTEQERATRFANDLVTAFGNVAQENREQVLRLYLLRAAGASGYHIKVLMAALVKLVDAHVITARMLCDKVLMCEKLDFEHRTFWIESFRLIKRVIVQVDYKGVREIMKVCRDKAQWFPLNVNVTYMPQLLAVEDILRFIFDRNNCLLPAYFIANEIMRPFPYHWKLNRLMTDFVEEFRTTAQMVSIIGHASMLPIVEHFGYADHMMNSWRLDHNTLKFNFKGSLPYEPELLEEQKPLLRYVLEQPYSREMVSQMLNLQKHQKQRYNALEEQLVNLIVQAMEMTEANDATAGSGFNSSDEQITPYEWMWLHLSSQLIYFVLFQFVSFMHIVLALHEKLSKLELRKGRDQLMWILLQFISGSIQKNPITNFLPVFRLFDLLYPELEPLKLPDINKSSMVRHMAPICVWIHLMKKARVENMNITRPLPIALKNHYDFLQHLVTANTMMNMTLGNDFRIILICNAYSTNQEYFGRPMGLLLDALNGTSKSPNGGQIPAVTFSVTVLDSLTVHSKMSLIHSFVTQMLKQAQSKGQVPAAALLETYARLLVYTEIESLGIKGFLSQLMPTVFKNHAWAMLHTLMEMFSYRLHHVPTHYRVQLLSLLHSLSSVPQTNKMQLNLCFESTALRLITSIGSAEFQPQFSRYFNDKSPGAVASNESEELNRVLILTLARSMHVHGGGDEMQGWCKDFLSNIIQHTPHSWPMHSLACFPPALNEYFTQNNQPPENKQQLKKAVEEEYRTWTSMTNENDIIAHFLRPTTNPLFLCLLFKIIWETENISPVAYKILEGISARALSTHLRKFCDYLVAEVASSSDGRDFIHKCVDTINNMIWKFNVVTIDRVVLCLALRTHEGNEAQVCFLIIQLLLLKASELRNRVQEFCKDNNPDHWKQSNWQDKHLSFHQKYPEKFALDESASQIPLPVYFSNVCLRFLPVLDVVVHRFIELTITNVHQILGFILDHLSILYKFHDRPITYLYNTLHYYERILRDRPALKKKLVGAITSAFSEIRPPNWSVSEPYKVYLQSQDSLWTPELSYYMSLIRRLADTISGKNVFYSTDWRFNEFPNAPTHALYVTCVELLGLPVAPPLVASNLIDVIVSGYAVIPQKDIHSYINAVGIVLAALPEPYWSGIYDRLQDMLNTPNMLNWTYRFNAFELFNFKTVREAMLEKTYAVVLAVAHSVFHHMGAFKLAAMTRYLKEKLKPCVRTEQQLLYLCHVFGPFLQRIELEKPNAVAGIAVLLYEILEIVDKHHGPKPLQYMDQICDFLYHIKYIHVGNIIKNESEAIIKRLRPLLQMRLRFITHLNLEDIHTEKINDNTSNNAITSQTQSPMQTQHQQQPQQPHQQQQQQQQQQQQQQQQQQQQQQMQQQQINAVQTTSVPLGSGGNLQQQQQINQQQQMYMQHMQQHQHMQNMRHN

Biological target: Moesin-GFP (Drosophila melanogaster) (UniProt P46150)
Test: affinity purification with mass spectrometry; nuclear protein fraction of S2R+ cells expressing Moesin-GFP or Moesin-HA; anti-GFP or anti-HA antibody-coupled magnetic beads; on-column trypsin digest, LC-MS/MS; score from six experiments (three for each tag)

binding, binds:
B1
B2
B3

Biological target: Moesin-HA (Drosophila melanogaster) (UniProt P46150)
Test: as above

binding, binds:
B1
B2
B3
